Experimental data taken from the supplement of paper PMC3334620.
Over roughly 33,000 sequences, “E-score (-0.5 to 0.5)” has its median near -8e-05; the highest 2% begin near 0.23. Some of the results follow.

These sequences were tested against T1, Nrg2 (UniProt P38082) (assay: PBM E-score (8-mer binding enrichment) (E-score (-0.5 to 0.5)); higher = stronger / more preferred TF binding). Conditions: protein concentration: 100 nM; construct: GST-full length.
T1 sequence: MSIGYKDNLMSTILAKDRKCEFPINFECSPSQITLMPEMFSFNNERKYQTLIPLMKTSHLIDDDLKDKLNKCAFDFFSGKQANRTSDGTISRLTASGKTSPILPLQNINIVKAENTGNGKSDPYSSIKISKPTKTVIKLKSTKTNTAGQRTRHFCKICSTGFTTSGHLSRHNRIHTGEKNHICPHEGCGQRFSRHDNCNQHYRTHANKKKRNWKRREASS
In short: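 Full-length yeast transcription factors or their DNA-binding domains, GST-tagged and expressed with PURExpress, were applied at about 100-200 nM to universal all-10-mer Agilent arrays. These arrays had been made double-stranded by primer extension on fresh or once-stripped slides. Detection used fluorescent anti-GST, normalisation used masliner, and E-scores for ungapped eight-base words pooled with reverse complements came from the Universal PBM Analysis Suite.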

First: AAGAAGAA
Second: GCGATATA
The “PBM E-score” value of the first is lower: 0.0224 for the first, 0.175 for the second.

Compared with ATGTCGCA, ATACGCGC is lower in “PBM E-score” value: 0.11 for the first, 0.0766 for the second.

Going from AGTCGTTG to CGGAACAC, the “PBM E-score” value rises from -0.315 to 0.264.

Compared with CAGAGGGA, CCTACCGC is lower in “PBM E-score” value: -0.17 for the first, -0.219 for the second.

First: AGGTGTTC
Second: CAGGGGGG
The “PBM E-score” value of the first is higher: -0.118 for the first, -0.282 for the second.

Going from AGCTATTG to AACCGGCG, the “PBM E-score” value rises from -0.133 to 0.091.

Compared with AGAGGGGA, GTCTCACA is higher in “PBM E-score” value: -0.144 for the first, 0.0449 for the second.

Compared with GATACTAA, AAGTCATA is lower in “PBM E-score” value: 0.167 for the first, 0.131 for the second.

First: GATTGGAA
Second: ACGCAAGA
The “PBM E-score” value of the first is lower: -0.0153 for the first, 0.147 for the second.

Compared with ATGGAAAG, GCAACCGC is lower in “PBM E-score” value: 0.119 for the first, -0.0846 for the second.

First: ACAGGTTG
Second: CCGTTTCA
The “PBM E-score” value of the first is lower: -0.0144 for the first, 0.122 for the second.

Going from CAGTGTCA to CCACGCTA, the “PBM E-score” value falls from -0.0093 to -0.0892.

Compared with CTCTACGA, AGCCTCCG is lower in “PBM E-score” value: 0.0109 for the first, -0.153 for the second.

First: TACATAGA
Second: CGCGGAAA
The “PBM E-score” value of the first is lower: 0.0247 for the first, 0.0291 for the second.

Compared with CAGCGACA, GACCCATC is lower in “PBM E-score” value: -0.0787 for the first, -0.105 for the second.

First: GAAACACA
Second: CATTTCGG
The “PBM E-score” value of the first is higher: -0.0169 for the first, -0.0406 for the second.

First: CGCAGAAC
Second: CTGCTGCA
The “PBM E-score” value of the first is higher: 0.173 for the first, -0.00138 for the second.

Compared with ATCAAGAC, AGTTTGAC is lower in “PBM E-score” value: 0.0473 for the first, -0.104 for the second.

Compared with CCACTTCC, ACGGATAA is higher in “PBM E-score” value: 0.0252 for the first, 0.226 for the second.

Going from AGTCCTGG to AGCACTCG, the “PBM E-score” value rises from -0.157 to -0.088.

Compared with CGCATCTC, ACCCGTCG is lower in “PBM E-score” value: -0.00501 for the first, -0.139 for the second.

First: AGGAAAGA
Second: AACTTTGA
The “PBM E-score” value of the first is lower: -0.0443 for the first, -0.0178 for the second.

First: CAAAGATG
Second: TCCTCGCA
The “PBM E-score” value of the first is higher: -0.0125 for the first, -0.0336 for the second.

Compared with CCATCCTC, ACACAGAC is higher in “PBM E-score” value: -0.111 for the first, 0.0481 for the second.

Compared with CGAGGGCG, AGGTTAAA is lower in “PBM E-score” value: -0.0566 for the first, -0.101 for the second.

Going from ACCATATC to ATATATGG, the “PBM E-score” value rises from 0.0168 to 0.23.

Going from AGTCTAAG to CAGCTTGA, the “PBM E-score” value falls from 0.109 to -0.0115.

Compared with ATTCTCAA, AGTACATA is lower in “PBM E-score” value: 0.214 for the first, 0.046 for the second.

Going from GCAGTTCC to ACTCAGTG, the “PBM E-score” value rises from -0.0194 to -0.0144.

Compared with CCTCGTCA, CCCTGTAA is higher in “PBM E-score” value: 0.155 for the first, 0.294 for the second.

First: CTAGTTGA
Second: CTCACTAC
The “PBM E-score” value of the first is higher: 0.128 for the first, 0.0227 for the second.

Compared with AAAAAGCT, AATTAGAG is higher in “PBM E-score” value: -0.0368 for the first, 0.143 for the second.

Going from TATGCAAA to GGCCGACC, the “PBM E-score” value rises from -0.0899 to 0.0556.

Compared with AATGCATC, AGAATATA is lower in “PBM E-score” value: 0.0166 for the first, -0.0647 for the second.

First: AACGGGCA
Second: AAATGCTA
The “PBM E-score” value of the first is lower: -0.1 for the first, 0.0225 for the second.

Compared with AGGGTAAT, ACGATTCA is lower in “PBM E-score” value: 0.0972 for the first, 0.0495 for the second.

Going from CGCTCCCC to TCCTCAAA, the “PBM E-score” value rises from -0.197 to -0.0847.

Going from GACAAAAC to ATTTATGC, the “PBM E-score” value falls from 0.274 to -0.0629.

Compared with TTAAGTAA, CTAAGGAC is lower in “PBM E-score” value: 0.00414 for the first, -0.0761 for the second.

Going from AGGCGTCA to AGTGTATG, the “PBM E-score” value rises from -0.132 to 0.0501.

Compared with CAGGTTCG, AATCGTCT is higher in “PBM E-score” value: -0.0464 for the first, -0.0302 for the second.

Going from AGACTACA to ACGCTTAG, the “PBM E-score” value falls from 0.0216 to -0.156.

Compared with ATTCCGAG, AAGCATTC is lower in “PBM E-score” value: 0.142 for the first, 0.0503 for the second.
